LiHisRS: 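Enzyme assay of histidyl-tRNA synthetase; the read-out is not stated. Target: Histidine-tRNA ligase, Leishmania infantum (UniProt A4I591). Tested at 30 µM. Direction is inferred from retests: higher values go with stronger inhibition. The assay is labelled LdHisRS but filed under L. infantum. About 69,000 compounds were tested under these conditions; 0.6% (about 410) showed 50% or more at least once.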
MtTrpRS: 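Enzyme assay of tryptophanyl-tRNA synthetase; the read-out is not stated. Target: Tryptophan-tRNA ligase, Mycobacterium tuberculosis (UniProt P9WFT3). Concentration: 10 µM. Higher most likely means stronger inhibition; the record gives no direction and few retests gave an IC50. Of about 65,000 compounds tested this way, about 64 (0.098%) reached 50% or more in at least one test.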

Chains of the proteins cited; added tags and fusions are not shown. Residues count along the entry.
UniProt A4I591, 1-473: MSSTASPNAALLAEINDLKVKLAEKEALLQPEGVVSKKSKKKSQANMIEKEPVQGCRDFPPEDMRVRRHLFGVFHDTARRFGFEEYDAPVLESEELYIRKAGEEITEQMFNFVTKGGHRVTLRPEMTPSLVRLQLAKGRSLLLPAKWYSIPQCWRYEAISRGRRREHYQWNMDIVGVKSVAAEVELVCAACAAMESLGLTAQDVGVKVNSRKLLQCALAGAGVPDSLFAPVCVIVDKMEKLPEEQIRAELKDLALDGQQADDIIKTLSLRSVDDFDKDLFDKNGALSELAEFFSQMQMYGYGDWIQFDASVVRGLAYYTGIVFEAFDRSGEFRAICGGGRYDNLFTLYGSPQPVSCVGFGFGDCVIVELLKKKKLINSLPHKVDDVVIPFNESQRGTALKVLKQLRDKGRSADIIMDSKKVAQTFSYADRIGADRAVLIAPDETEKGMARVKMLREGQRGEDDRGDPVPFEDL
UniProt P9WFT3, whole entry: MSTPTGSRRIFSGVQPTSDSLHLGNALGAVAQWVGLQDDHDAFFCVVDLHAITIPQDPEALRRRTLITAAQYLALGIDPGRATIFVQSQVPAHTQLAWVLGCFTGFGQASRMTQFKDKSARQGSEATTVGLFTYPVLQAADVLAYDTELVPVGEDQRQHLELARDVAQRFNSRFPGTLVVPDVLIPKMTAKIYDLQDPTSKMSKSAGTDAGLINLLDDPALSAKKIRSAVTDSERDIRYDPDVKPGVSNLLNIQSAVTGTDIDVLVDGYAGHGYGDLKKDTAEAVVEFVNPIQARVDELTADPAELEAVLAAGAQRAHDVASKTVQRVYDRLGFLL

Each number is a percent effect as filed. How 0% and 100% were set is not recorded. Most values in the screen are low, and negative values occur. Compounds were drawn at random from those tested, without regard to their results.

Result for CCc1nccn1CCCNC(=O)c1cnn(-c2ccccc2OC)c1 was LiHisRS: 15.22%; MtTrpRS: -2.251%. Result for NC(=O)N1CCC(NCc2cc(C(F)(F)F)ccc2Cl)CC1 was LiHisRS: 12.05%; MtTrpRS: 0.3137%. With O=C(CCc1n[nH]c2c1CCCC2)N1C[C@@H]2CC[C@H](C1)N(CC1CC1)C2 the screen gave LiHisRS: 56.45%; MtTrpRS: -2.571%. Result for CC(C)(C)C(=O)Cn1nc(-c2ccccc2F)ccc1=O was LiHisRS: 15.53%; MtTrpRS: -6.834%.

COc1ccc(-c2cc(C(=O)NCCn3ccnc3)n(C)n2)cc1 read LiHisRS: 0%; MtTrpRS: 4.294%. O=C(NCC1CCOC1)c1cc(-c2ccc(F)cc2)[nH]n1 (stereo not shown) gave LiHisRS: 15.5%; MtTrpRS: -1.888%. Result for CC(C)c1nccn1C1CCCN(C(=O)CCc2cscn2)C1 (stereo not shown) was LiHisRS: 13.16%; MtTrpRS: -3.477%. O=C(NC[C@]1(O)CN(Cc2ccc(F)cc2)C[C@H]1O)c1ccccn1 read LiHisRS: 11.43%.

With Cn1cnc2c1CCN(Cc1nc(Cc3ccccc3)no1)C2 the screen gave LiHisRS: 25.76%; MtTrpRS: 5.166%. With COCCNc1nc2c(c(NCc3ccncc3)n1)CCNCC2 the screen gave LiHisRS: 30.77%; MtTrpRS: 4.412%. With Cc1nc(CO[C@@H]2CN(Cc3cnn(C)c3)[C@@H]3COC[C@@H]32)cs1 the screen gave LiHisRS: 7.619%; MtTrpRS: 3.043%. For CCN1C(=O)CC(c2ccccc2)C12CCN(c1ncc(C)cn1)CC2 (stereo not shown) the result was LiHisRS: 15.38%; MtTrpRS: -4.36%.

Result for Cc1cc(O)c(OCC(=O)Nc2nc3c(s2)CCCC3)cn1 was LiHisRS: -2.5%; MtTrpRS: -2.441%. O=C(Nc1ccc(F)cc1-c1nc(C2CC2)no1)N1CC[C@@H](O)C1 read LiHisRS: 21.74%; MtTrpRS: 0%. CCOCc1cnc2n1CCN(Cc1cccs1)C2C (stereo not shown) gave LiHisRS: 16%; MtTrpRS: -0.9149%. Result for Cc1nc(CN(C)C2CCN(CCCOc3ccc(F)cc3)C2)no1 (stereo not shown) was LiHisRS: 18.8%; MtTrpRS: 17.09%.

For O=C(NCC1CCCCC1)N1C[C@H]2C[C@H](C(=O)N3CCCC3)[C@@H](C1)O2 the result was LiHisRS: 17.24%; MtTrpRS: -0.3236%. Cc1ccccc1C(=O)N1CC(C(=O)NCC2CC2)C2(CCOCC2)C1 (stereo not shown) read LiHisRS: 6.195%; MtTrpRS: -4.223%. c1cncc(-c2noc(CNC3CCc4ncnn4C3)n2)c1 (stereo not shown) gave LiHisRS: 5.505%; MtTrpRS: 0.5805%. Result for COc1ccc(OC)c(CNCc2c(C)nc3sc(C)cn23)c1 was LiHisRS: 12.12%; MtTrpRS: 1.615%.

For O=C(NC(c1ccc(Cl)cc1)c1cccnc1)C1CC1 (stereo not shown) the result was LiHisRS: 22.83%; MtTrpRS: -3.11%. CSCCc1n[nH]c2c1CN(S(=O)(=O)c1cn(C)c(C)n1)CC2 gave LiHisRS: 5.714%; MtTrpRS: 0.3358%. Result for Cc1nccn1C1CCCN(C(=O)c2ccc(N3CCCC3)nn2)C1 (stereo not shown) was LiHisRS: 16.67%; MtTrpRS: -0.09747%. For O=C(NCC(CO)Cc1cccc(OC(F)(F)F)c1)c1cnccn1 (stereo not shown) the result was LiHisRS: -3.297%; MtTrpRS: -2.265%.

CC(C)COCCCNC(=O)NC(C)c1ccc(-n2cncn2)cc1 (stereo not shown) gave LiHisRS: 23.94%; MtTrpRS: 1.11%. Result for CCC(NCc1ncc[nH]1)c1nc(C(F)(F)F)cs1 (stereo not shown) was LiHisRS: 18.8%; MtTrpRS: -6.067%. With O=C(N[C@@H]1CC[C@@H](N2CCCC2)[C@@H]1O)c1cc2ccccc2[nH]1 the screen gave LiHisRS: 12.68%; MtTrpRS: -5.774%. For Cn1c(CN2CCOC(CNc3cccnn3)C2)nnc1C1CC1 (stereo not shown) the result was LiHisRS: 0%; MtTrpRS: -7.542%.

OCCN(Cc1cccnc1)c1cnc2ccccc2n1 read LiHisRS: 11.11%; MtTrpRS: 3.936%. CSc1[nH]c(=O)c(C(=O)N2CCCC2C2CCCC2)cc1C#N (stereo not shown) read LiHisRS: 11.9%; MtTrpRS: 5.472%. With COc1ccccc1S(=O)(=O)Nc1cnc(O)cc1C the screen gave LiHisRS: 20.48%; MtTrpRS: 8.43%. CCn1cc(CN2CCCN(C(=O)c3ccco3)CC2)cn1 gave LiHisRS: 18.58%; MtTrpRS: -4.138%.

With Cc1cccc(COC[C@@H]2CC[C@H]3[C@H](CCN3C(=O)CC3CC3)O2)n1 the screen gave LiHisRS: 23%; MtTrpRS: -0.3791%. For O=C(NCCSC1CCCC1)c1cc(C2CC2)on1 the result was LiHisRS: 12.5%; MtTrpRS: -3.425%. CN(C)C(=O)CN1CCC2(CCN(Cc3nccs3)CC2)C1=O read LiHisRS: 1.887%; MtTrpRS: 4.302%. For O=C(Cc1ccsc1)N1CCCC(c2n[nH]c3nccnc23)C1 (stereo not shown) the result was LiHisRS: 19.44%; MtTrpRS: 5.936%.

Result for COC(=O)C(NC(=O)c1ccc(N(C)C)nc1)c1ccccc1 (stereo not shown) was LiHisRS: 9.821%; MtTrpRS: 1.144%. For CN1CCN(C(=O)c2cnsn2)c2ccc(F)cc21 the result was LiHisRS: 15.22%; MtTrpRS: 1.708%. O=C1COC2(CCN(Cc3ccco3)CC2)CN1 read LiHisRS: -7.692%; MtTrpRS: -1.521%. For Cc1noc(C(C)N2CCN(Cc3noc(C4CC4)n3)CC2)n1 (stereo not shown) the result was LiHisRS: -2.222%; MtTrpRS: -0.7988%.

CCc1nc(CC(=O)N2CCN(c3cnccn3)CC2)cs1 gave LiHisRS: 13.51%; MtTrpRS: -1.267%. Result for CC(C(N)=O)N1CCN(c2ncc(Cl)cn2)CC1 (stereo not shown) was LiHisRS: 2.073%; MtTrpRS: 0.5112%. Cc1nc2ccccn2c1CC(=O)N[C@@H]1CC[C@@H](N2CCCC2)[C@@H]1O gave LiHisRS: 20%; MtTrpRS: 0.5217%. Result for CSc1nccc(NCc2cc3n(n2)CCCN(C(=O)C2CCC2)C3)n1 was LiHisRS: 15.96%; MtTrpRS: 5.124%.

For Cn1cc(CN2C[C@@H]3COC[C@]3(C(=O)NCc3ccccn3)C2)cn1 the result was LiHisRS: 16.98%; MtTrpRS: 1.994%. With CC(=O)N1CC[C@H]2C(=O)N(c3ccsc3)CCO[C@H]2C1 the screen gave LiHisRS: 10%; MtTrpRS: -3.843%.

Some entries from above, unchanged:

| compound | LiHisRS | MtTrpRS |
|---|---|---|
| `COC(=O)C(NC(=O)c1ccc(N(C)C)nc1)c1ccccc1` (stereo not shown) | 9.821 | 1.144 |
| `O=C(NCC(CO)Cc1cccc(OC(F)(F)F)c1)c1cnccn1` (stereo not shown) | -3.297 | -2.265 |
| `Cc1nccn1C1CCCN(C(=O)c2ccc(N3CCCC3)nn2)C1` (stereo not shown) | 16.67 | -0.09747 |

Data taken from ChEMBL document CHEMBL3988442, “University of Dundee, Small-Polar-MMV Screening Library” (2021).